The target in experiment [1] is transient receptor potential vanilloid 4 (TRPV4) (rat (endogenous in primary SFO neurons)) (UniProt Q9ERZ8). The experiment can be described thus: co-IP; primary SFO neuron lysate; precipitated with anti-TRPV4, anti-TRPV1 or anti-HO-2 antibody and Protein A/G Plus-Agarose beads, 4 °C overnight, washed thrice with PBS; blots for HO-2, HO-1, TRPV4, TRPV1; neurons with or without hypoxia (superfusion with hypoxic medium for 2 min).

By UniProt entry, the sequences of proteins in these tests, tags left out.
UniProt Q9ERZ8: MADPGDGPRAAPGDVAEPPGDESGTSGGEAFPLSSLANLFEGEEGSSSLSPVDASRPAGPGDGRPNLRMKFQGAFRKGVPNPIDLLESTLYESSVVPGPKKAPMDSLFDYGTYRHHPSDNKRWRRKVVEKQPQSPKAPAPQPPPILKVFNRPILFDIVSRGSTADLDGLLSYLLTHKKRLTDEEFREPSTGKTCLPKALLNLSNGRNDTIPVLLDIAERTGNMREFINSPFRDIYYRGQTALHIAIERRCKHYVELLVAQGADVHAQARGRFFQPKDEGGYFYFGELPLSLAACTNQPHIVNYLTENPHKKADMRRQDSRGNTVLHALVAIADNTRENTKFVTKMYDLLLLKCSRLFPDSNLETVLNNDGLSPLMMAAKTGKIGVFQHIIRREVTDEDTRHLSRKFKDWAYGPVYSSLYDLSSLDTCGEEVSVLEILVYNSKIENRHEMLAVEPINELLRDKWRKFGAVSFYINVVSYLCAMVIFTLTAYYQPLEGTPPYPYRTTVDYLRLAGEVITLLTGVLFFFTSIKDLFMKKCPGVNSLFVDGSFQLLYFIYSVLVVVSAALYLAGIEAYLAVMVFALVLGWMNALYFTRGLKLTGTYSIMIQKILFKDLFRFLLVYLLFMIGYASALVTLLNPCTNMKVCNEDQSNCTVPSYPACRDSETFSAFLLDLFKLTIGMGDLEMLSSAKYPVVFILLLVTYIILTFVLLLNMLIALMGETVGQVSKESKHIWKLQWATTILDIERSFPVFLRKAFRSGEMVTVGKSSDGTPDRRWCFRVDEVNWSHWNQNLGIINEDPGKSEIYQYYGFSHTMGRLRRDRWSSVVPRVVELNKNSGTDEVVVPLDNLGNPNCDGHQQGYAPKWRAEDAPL
UniProt O35433: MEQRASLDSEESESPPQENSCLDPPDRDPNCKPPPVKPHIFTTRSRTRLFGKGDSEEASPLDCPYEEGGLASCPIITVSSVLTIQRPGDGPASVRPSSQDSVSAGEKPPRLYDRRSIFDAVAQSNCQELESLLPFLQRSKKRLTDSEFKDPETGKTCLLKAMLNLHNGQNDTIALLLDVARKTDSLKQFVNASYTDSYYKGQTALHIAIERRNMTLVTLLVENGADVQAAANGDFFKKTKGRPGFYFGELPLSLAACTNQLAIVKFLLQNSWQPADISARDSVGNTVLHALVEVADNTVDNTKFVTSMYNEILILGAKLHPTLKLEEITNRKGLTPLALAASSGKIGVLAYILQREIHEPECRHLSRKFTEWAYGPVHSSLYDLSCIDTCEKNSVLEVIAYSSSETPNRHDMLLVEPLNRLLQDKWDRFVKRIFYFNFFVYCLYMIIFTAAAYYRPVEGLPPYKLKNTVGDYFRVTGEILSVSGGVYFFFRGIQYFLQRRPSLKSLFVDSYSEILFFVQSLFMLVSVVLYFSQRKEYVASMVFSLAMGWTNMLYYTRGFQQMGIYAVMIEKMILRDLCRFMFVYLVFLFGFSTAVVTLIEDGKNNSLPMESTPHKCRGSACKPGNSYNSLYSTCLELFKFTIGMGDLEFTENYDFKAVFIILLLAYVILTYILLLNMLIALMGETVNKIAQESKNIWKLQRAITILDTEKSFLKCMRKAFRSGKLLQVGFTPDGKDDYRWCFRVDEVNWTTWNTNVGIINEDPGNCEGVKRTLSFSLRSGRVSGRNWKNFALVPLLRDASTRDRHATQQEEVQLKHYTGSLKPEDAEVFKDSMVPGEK

Experiment [2] addresses transient receptor potential vanilloid 1 (TRPV1) (rat (endogenous in primary SFO neurons)) (UniProt O35433). The experiment is described as above.

Results are given in words; binding and its absence hold for the method and conditions named. Binding seen in cells or lysates may run through a third protein. Some binding calls cover weakened binding; strength is not graded here.

B1: hemeoxygenase-2 (HO-2) (enzyme, UniProt P23711 1-315)
chain: MSSEVETSEGVDESENNSTAPEKENHTKMADLSELLKEGTKEAHDRAENTQFVKDFLKGNIKKELFKLATTALYFTYSALEEEMDRNKDHPAFAPLYFPTELHRKEALIKDMEYFFGENWEEQVKCSEAAQKYVDRIHYVGQNEPELLVAHAYTRYMGDLSGGQVLKKVAQRALKLPSTGEGTQFYLFEHVDNAQQFKQFYRARMNALDLSMKTKERIVEEANKAFEYNMQIFSELDQAGSMLTKETLEDGLPVHDGKGDVRKCPFYAAQPDKGTLGGSNCPFRTAMAVLRKPSLQLILAASVALVAGLLAWYYM
For B1, the binding entry is “binds” in experiment [1] and “no binding” in experiment [2].

B2: HO-1 (enzyme, UniProt P06762 1-289)
chain: MERPQLDSMSQDLSEALKEATKEVHIRAENSEFMRNFQKGQVSREGFKLVMASLYHIYTALEEEIERNKQNPVYAPLYFPEELHRRAALEQDMAFWYGPHWQEAIPYTPATQHYVKRLHEVGGTHPELLVAHAYTRYLGDLSGGQVLKKIAQKAMALPSSGEGLAFFTFPSIDNPTKFKQLYRARMNTLEMTPEVKHRVTEEAKTAFLLNIELFEELQALLTEEHKDQSPSQTEFLRQRPASLVQDTTSAETPRGKSQISTSSSQTPLLRWVLTLSFLLATVAVGIYAM
For B2, the binding result in experiment [1] and in experiment [2] was “no binding” each time.

The record behind these values is PMC4951807.
